Literature values, collected in US8257915B2, “Farnesyltransferase inhibitors for treatment of laminopathies, cellular aging and atherosclerosis” (Progeria Research Foundation, Inc., priority 2002, dated 2012).
At least one structure is not confirmed: it was looked up by name or label, or the drawing left a doubt.

Conditions: clinical trials; cited from earlier work

SMILES: Cn1cncc1[C@@](N)(c1ccc(Cl)cc1)c1ccc2c(c1)c(-c1cccc(Cl)c1)cc(=O)n2C [tipifarnib]
- efficacy against cancer: not fully effective
